Measured values from PubChem BioAssay AID258 (DTP/NCI, 2004).
The list is a part of this screen's results and no random one: its compounds were picked by chemical class. Other doses and runs of a compound may be missing. T/C is the treated group as % of the vehicle group. Some entries give survivors of the animals treated and no T/C: the source holds a T/C of zero for them, seemingly a mark for toxic or unscored doses. Survivors were counted at the toxicity check, usually on the fifth day, unless a day is given; later deaths do not show. Schedules are NCI's codes, taken here to give the interval after Q, in days (D) or hours (H), and the number of doses after X. Some schedule codes hold Z or #, which are not explained here. Where survival is the endpoint, this PubChem deposit counts one and a half times the control or more as active, and values a quarter to a half above the control carry no call in these data; other NCI protocols may use other cut-offs. Some T/C values are followed by the survivors on the day toxicity was checked, most often the fifth; without a count or a note in brackets, all were alive then.

Test system: CD2F1 mice, L1210 leukemia sc, survival T/C
Test: NCI In Vivo Anticancer Drug Screen. Data for tumor model L1210 Leukemia (subcutaneous) in CD2F1 (CDF1) mice
Settings: T/C endpoint: median survival time, schedule: Q01DX Z (sc), higher T/C = longer survival
Method: The antitumor activity of compounds was measured in mice bearing transplantable tumors. Survival or tumor size were measured and the results are expressed as the measurement made in the treated group (T) divided by the measurement made in the vehicle treated control group (C). The tumor model used in this assay is L1210 Leukemia (subcutaneous) in CD2F1 (CDF1) mice

SMILES | survivor count (dose: 5.0 mg/kg/injection, vehicle: saline) | survivor count (dose: 8.4 mg/kg/injection, vehicle: saline) | T/C (dose: 14.0 mg/kg/injection, vehicle: saline) | survivor count (dose: 23.0 mg/kg/injection, vehicle: saline) | T/C (dose: 39.0 mg/kg/injection, vehicle: saline) | survivor count (dose: 14.0 mg/kg/injection, vehicle: methylcellulose (MC)) | T/C (dose: 23.4 mg/kg/injection, vehicle: methylcellulose (MC)) | T/C (dose: 38.9 mg/kg/injection, vehicle: methylcellulose (MC)) | T/C (dose: 64.8 mg/kg/injection, vehicle: methylcellulose (MC)) | survivor count (dose: 108.0 mg/kg/injection, vehicle: methylcellulose (MC)) | T/C (dose: 180.0 mg/kg/injection, vehicle: methylcellulose (MC)) | T/C (dose: 300.0 mg/kg/injection, vehicle: methylcellulose (MC))
Cc1[nH]c(=O)[nH]c(=O)c1N(CCCl)CCCl | 3 of 10 | 3 of 10 | 142 % of control [7 of 10 alive] | 6 of 10 | 126 % of control [8 of 10 alive] | – | – | – | – | – | – | –
NNS(=O)(=O)c1ccc(N(CCCl)CCCl)cc1 | – | – | – | – | – | 6 of 10 | 105 % of control [9 of 10 alive] | 105 % of control [8 of 10 alive] | 105 % of control [7 of 10 alive] | 3 of 10 | 105 % of control [9 of 10 alive] | 105 % of control [7 of 10 alive]
